From the supplement of paper PMC6411743
± gives the standard deviation of the averaged measurements. The list shows a part of the results.

The chains behind the UniProt entries cited, without tags or fusion partners. Where a name states a change or a piece, a line headed by the entry shows the natural chain unless it says otherwise.
UniProt Q96F07, whole entry: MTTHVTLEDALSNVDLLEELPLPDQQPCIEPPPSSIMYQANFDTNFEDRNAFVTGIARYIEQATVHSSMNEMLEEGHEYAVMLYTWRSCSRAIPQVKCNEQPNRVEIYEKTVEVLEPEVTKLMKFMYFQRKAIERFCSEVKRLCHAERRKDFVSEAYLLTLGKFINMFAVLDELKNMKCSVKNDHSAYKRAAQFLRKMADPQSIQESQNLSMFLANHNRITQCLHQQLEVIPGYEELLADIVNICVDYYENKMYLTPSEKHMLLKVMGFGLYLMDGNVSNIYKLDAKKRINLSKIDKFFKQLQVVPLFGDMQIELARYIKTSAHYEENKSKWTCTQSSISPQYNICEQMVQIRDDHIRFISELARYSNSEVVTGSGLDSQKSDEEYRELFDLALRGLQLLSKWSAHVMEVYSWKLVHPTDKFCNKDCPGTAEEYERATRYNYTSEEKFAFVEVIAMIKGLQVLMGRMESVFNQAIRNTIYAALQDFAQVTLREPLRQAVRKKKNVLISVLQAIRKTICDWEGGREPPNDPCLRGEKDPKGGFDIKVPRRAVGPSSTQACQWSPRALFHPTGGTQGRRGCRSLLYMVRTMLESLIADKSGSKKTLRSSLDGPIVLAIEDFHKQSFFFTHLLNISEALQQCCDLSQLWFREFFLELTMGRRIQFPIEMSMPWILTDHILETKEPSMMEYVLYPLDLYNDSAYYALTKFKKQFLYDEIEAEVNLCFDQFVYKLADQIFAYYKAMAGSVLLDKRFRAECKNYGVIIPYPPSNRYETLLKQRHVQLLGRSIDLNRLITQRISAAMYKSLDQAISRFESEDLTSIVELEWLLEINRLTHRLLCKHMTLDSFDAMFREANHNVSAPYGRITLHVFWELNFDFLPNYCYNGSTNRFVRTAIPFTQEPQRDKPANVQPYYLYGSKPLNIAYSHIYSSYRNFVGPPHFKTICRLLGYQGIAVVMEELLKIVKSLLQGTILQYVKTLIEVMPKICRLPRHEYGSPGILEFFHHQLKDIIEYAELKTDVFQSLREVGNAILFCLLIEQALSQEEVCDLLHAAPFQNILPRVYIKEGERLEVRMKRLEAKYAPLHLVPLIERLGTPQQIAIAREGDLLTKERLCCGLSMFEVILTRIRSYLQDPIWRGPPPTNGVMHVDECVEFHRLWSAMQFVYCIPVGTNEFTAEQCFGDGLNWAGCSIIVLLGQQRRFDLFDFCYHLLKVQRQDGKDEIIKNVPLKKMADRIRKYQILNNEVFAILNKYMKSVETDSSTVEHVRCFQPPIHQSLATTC
UniProt O75251, whole entry: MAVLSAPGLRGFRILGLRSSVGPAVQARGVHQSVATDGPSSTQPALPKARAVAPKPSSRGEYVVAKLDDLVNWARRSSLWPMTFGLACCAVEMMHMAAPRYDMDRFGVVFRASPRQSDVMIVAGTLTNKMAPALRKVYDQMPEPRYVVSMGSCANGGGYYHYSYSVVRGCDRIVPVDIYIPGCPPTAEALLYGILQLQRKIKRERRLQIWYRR
UniProt P48382: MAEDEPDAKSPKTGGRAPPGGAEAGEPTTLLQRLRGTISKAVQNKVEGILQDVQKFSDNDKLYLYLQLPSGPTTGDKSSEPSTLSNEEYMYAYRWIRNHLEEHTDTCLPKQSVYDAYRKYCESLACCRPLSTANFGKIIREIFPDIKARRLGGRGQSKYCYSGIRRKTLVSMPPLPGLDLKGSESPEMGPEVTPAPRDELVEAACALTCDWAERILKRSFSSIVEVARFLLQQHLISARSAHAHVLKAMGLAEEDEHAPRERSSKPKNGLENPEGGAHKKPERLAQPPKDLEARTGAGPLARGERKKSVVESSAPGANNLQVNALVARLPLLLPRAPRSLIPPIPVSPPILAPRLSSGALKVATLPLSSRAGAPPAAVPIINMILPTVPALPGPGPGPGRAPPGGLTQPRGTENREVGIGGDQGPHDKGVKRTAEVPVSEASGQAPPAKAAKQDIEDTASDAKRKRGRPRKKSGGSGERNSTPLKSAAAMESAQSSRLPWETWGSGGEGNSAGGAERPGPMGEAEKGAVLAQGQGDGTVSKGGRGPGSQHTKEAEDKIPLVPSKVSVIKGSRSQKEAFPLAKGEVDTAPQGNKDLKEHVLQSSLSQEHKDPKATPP
UniProt Q9NUW8, whole entry: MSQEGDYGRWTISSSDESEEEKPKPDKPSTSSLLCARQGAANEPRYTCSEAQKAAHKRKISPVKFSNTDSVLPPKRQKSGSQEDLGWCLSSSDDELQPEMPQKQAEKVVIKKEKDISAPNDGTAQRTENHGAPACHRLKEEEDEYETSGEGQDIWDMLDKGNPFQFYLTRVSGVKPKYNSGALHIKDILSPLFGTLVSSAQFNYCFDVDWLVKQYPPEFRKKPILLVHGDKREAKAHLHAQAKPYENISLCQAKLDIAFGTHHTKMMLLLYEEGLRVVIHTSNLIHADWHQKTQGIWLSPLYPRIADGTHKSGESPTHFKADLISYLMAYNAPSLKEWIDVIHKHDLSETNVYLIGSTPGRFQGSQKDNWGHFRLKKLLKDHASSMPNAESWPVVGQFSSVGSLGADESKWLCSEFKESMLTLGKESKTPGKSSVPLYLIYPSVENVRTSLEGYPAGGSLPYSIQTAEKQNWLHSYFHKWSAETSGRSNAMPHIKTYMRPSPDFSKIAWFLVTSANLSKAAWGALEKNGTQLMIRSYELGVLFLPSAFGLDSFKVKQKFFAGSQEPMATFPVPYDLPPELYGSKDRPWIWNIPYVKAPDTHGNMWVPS
UniProt O00559: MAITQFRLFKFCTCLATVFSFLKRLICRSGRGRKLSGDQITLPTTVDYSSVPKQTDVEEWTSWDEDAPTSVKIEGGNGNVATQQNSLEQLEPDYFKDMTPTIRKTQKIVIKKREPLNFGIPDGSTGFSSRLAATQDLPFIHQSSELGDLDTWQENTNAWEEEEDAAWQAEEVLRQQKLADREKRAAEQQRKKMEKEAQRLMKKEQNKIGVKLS
UniProt Q96RT7, whole entry: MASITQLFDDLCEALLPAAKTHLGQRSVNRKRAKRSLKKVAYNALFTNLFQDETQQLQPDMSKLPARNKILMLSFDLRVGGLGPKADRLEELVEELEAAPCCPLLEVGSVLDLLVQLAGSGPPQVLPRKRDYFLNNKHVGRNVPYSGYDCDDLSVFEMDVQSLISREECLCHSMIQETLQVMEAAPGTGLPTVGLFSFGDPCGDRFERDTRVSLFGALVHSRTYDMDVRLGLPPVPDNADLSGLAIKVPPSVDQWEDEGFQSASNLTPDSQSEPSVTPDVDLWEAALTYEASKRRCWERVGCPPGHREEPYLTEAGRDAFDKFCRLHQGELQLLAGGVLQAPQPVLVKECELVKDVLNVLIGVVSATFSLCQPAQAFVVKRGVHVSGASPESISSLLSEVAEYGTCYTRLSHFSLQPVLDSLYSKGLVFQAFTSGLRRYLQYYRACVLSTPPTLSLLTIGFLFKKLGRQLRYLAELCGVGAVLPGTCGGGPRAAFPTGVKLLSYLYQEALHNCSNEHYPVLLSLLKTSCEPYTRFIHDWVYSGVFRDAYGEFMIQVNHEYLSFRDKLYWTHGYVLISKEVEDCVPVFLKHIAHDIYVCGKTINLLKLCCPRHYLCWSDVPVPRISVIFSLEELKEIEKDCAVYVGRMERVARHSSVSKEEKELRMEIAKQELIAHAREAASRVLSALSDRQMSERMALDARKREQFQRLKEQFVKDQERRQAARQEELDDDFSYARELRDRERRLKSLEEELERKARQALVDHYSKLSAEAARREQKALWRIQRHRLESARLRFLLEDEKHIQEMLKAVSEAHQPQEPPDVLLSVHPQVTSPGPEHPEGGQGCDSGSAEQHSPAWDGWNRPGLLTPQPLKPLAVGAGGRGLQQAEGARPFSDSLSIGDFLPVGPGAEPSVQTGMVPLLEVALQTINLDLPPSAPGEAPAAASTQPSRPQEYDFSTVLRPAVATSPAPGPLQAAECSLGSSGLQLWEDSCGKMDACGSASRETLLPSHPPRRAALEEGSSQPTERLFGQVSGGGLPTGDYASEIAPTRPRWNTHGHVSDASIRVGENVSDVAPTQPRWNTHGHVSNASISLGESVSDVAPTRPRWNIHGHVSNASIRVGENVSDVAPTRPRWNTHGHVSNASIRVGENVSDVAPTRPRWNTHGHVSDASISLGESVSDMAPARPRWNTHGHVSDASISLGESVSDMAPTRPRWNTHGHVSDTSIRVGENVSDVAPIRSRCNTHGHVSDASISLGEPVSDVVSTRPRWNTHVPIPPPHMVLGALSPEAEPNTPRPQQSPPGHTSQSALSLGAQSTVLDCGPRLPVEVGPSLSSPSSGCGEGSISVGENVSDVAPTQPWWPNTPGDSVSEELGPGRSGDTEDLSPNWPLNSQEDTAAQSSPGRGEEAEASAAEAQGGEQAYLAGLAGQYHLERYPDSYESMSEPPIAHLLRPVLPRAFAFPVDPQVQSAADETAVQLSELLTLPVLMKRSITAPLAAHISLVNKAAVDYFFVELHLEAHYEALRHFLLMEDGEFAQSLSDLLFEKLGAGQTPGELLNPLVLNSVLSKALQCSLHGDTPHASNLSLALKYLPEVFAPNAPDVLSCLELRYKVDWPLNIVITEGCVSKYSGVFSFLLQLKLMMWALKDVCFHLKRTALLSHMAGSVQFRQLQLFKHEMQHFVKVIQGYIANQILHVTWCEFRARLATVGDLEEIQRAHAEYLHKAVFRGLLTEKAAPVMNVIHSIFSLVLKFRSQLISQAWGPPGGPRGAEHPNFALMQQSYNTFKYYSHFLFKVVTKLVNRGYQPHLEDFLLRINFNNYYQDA
UniProt Q9Y4P3: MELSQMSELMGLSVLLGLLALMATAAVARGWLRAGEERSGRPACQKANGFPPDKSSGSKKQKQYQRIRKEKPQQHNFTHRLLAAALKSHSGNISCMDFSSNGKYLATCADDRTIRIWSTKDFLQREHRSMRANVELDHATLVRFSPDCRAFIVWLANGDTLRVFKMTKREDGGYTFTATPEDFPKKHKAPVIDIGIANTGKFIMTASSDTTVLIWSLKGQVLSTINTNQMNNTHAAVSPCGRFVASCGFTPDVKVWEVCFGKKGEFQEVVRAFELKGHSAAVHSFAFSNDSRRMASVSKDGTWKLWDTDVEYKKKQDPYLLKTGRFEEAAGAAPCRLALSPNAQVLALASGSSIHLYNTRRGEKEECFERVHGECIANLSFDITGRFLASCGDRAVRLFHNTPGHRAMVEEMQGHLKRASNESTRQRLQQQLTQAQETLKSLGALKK
UniProt Q9NYF8, whole entry: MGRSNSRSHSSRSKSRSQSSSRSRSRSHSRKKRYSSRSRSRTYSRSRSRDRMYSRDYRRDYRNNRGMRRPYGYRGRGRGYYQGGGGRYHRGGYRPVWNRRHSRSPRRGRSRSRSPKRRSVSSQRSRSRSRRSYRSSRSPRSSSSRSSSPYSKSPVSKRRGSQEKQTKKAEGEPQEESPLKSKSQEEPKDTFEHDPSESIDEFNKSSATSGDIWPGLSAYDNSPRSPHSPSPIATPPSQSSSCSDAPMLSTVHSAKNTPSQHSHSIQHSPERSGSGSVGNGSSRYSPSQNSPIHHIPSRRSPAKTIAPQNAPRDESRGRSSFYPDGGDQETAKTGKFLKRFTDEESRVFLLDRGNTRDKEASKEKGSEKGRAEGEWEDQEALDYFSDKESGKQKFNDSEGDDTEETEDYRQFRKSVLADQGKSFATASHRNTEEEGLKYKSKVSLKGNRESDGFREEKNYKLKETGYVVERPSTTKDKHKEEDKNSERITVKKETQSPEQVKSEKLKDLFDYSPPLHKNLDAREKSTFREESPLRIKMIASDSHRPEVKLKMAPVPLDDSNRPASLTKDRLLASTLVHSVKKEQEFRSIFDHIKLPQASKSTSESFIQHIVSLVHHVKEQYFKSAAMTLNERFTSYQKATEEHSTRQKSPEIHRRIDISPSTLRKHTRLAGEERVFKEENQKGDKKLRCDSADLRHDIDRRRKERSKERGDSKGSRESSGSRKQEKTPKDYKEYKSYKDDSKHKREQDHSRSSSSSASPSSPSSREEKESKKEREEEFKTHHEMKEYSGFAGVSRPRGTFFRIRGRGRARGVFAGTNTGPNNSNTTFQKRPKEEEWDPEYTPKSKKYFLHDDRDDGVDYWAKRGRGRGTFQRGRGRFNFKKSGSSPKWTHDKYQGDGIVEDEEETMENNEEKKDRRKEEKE
UniProt P57764: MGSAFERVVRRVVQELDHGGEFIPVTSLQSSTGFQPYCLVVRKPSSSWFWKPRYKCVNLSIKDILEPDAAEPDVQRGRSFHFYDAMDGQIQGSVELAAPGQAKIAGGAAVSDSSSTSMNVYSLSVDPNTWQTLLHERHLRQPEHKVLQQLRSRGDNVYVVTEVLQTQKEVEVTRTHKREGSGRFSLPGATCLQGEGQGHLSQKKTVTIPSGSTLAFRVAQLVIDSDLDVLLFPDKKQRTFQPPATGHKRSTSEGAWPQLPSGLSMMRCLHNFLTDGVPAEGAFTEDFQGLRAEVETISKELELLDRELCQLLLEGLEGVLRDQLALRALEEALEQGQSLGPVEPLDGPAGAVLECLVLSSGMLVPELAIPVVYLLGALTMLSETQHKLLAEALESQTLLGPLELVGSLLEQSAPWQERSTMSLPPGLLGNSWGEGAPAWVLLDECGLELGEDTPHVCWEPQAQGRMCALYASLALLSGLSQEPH

Compound: Nc1nc2c(ncn2[C@@H]2O[C@H](COP(=O)(O)OP(=O)(O)OP(=O)(O)O)[C@@H](O)[C@H]2O)c(=O)[nH]1 [guanosine triphosphate]
Experiment: NP40-soluble protein abundance relative to vehicle (solubility fold change) (ratio); higher = more soluble protein in presence of GTP
Outline: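 Values are fold changes against the detergent-processed vehicle, based on vsn-normalised intensities. Jurkat crude lysate was treated at eight concentrations from 0.1 to 10 mM (10 min at room temperature, then 3 min at 37 °C), solubilised with 0.8% NP40 and benzonase, ultracentrifuged and analysed by TMT-labelled LC-MS/MS over three independent experiments.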

Target | NP40-soluble protein abundance (concentration: 0.1mM) | NP40-soluble protein abundance (concentration: 0.5mM) | NP40-soluble protein abundance (concentration: 1mM) | NP40-soluble protein abundance (concentration: 2mM) | NP40-soluble protein abundance (concentration: 4mM) | NP40-soluble protein abundance (concentration: 6mM) | NP40-soluble protein abundance (concentration: 8mM) | NP40-soluble protein abundance (concentration: 10mM)
F8W060 and related entries (UniProt Q9BZF1) | 0.969 ± 0.035 | 0.969 ± 0.025 | 0.954 ± 0.021 | 0.897 ± 0.025 | 0.9129 ± 0.0062 | 0.927 ± 0.037 | 0.986 ± 0.049 | 0.954 ± 0.033
E9PFN5 and related entries (UniProt Q9Y2Q3) | 0.922 ± 0.042 | 0.934 ± 0.038 | 0.895 ± 0.036 | 0.906 ± 0.043 | 0.887 ± 0.042 | 0.888 ± 0.031 | 0.829 ± 0.082 | 0.86 ± 0.079
G3V2U7 and related entries (UniProt P07311) | 0.918 ± 0.04 | 0.896 ± 0.055 | 0.896 ± 0.058 | 0.852 ± 0.061 | 0.851 ± 0.064 | 0.848 ± 0.073 | 0.854 ± 0.094 | 0.842 ± 0.097
E7EVJ5 and related entries (UniProt Q96F07) | 1.12 ± 0.069 | 1.16 ± 0.11 | 0.938 ± 0.031 | 1.04 ± 0.15 | 0.97 ± 0.094 | 0.964 ± 0.059 | 0.864 ± 0.058 | 0.845 ± 0.1
F5H3X1 and related entries (UniProt Q6NXE6) | 1.01 ± 0.023 | 1.01 ± 0.02 | 0.974 ± 0.03 | 0.964 ± 0.038 | 0.937 ± 0.044 | 0.924 ± 0.017 | 0.915 ± 0.023 | 0.903 ± 0.031
F5GXJ1 and related entries (UniProt O75251) | 1.05 ± 0.07 | 1.11 ± 0.057 | 1.03 ± 0.013 | 1.1 ± 0.074 | 1.07 ± 0.016 | 1.07 ± 0.048 | 1.05 ± 0.039 | 1.03 ± 0.07
F8W689 and related entries (UniProt P48382) | 0.985 ± 0.053 | 0.955 ± 0.061 | 1.05 ± 0.034 | 1.05 ± 0.054 | 1.04 ± 0.036 | 1.08 ± 0.02 | 1.03 ± 0.047 | 1.13 ± 0.052
E9PJN1 and related entries (UniProt O75676) | 1.18 ± 0.19 | 1.17 ± 0.15 | 1.2 ± 0.31 | 1.22 ± 0.26 | 1.2 ± 0.24 | 1.24 ± 0.27 | 1.18 ± 0.19 | 1.2 ± 0.16
F8VXU5 and related entries (UniProt Q9UBQ0) | 0.989 ± 0.047 | 0.992 ± 0.071 | 0.935 ± 0.049 | 0.884 ± 0.096 | 0.895 ± 0.07 | 0.893 ± 0.073 | 0.853 ± 0.035 | 0.822 ± 0.062
E9PEI0 and related entries (UniProt Q69YH5) | 1.02 ± 0.056 | 0.98 ± 0.039 | 0.929 ± 0.049 | 0.998 ± 0.065 | 0.972 ± 0.04 | 0.944 ± 0.048 | 0.986 ± 0.061 | 0.984 ± 0.043
F5H5G1 and related entries (UniProt Q13449) | 0.872 ± 0.041 | 0.811 ± 0.043 | 0.868 ± 0.081 | 0.829 ± 0.033 | 0.89 ± 0.035 | 0.949 ± 0.091 | 0.908 ± 0.026 | 0.953 ± 0.014
E7EPD8 and related entries (UniProt Q9NUW8) | 1.01 ± 0.052 | 0.997 ± 0.021 | 0.97 ± 0.032 | 0.975 ± 0.027 | 0.99 ± 0.025 | 0.967 ± 0.024 | 0.983 ± 0.049 | 0.964 ± 0.057
G3V167 and related entries (UniProt Q9UGN5) | 0.968 ± 0.053 | 1.05 ± 0.13 | 1.05 ± 0.13 | 1.09 ± 0.11 | 1.1 ± 0.092 | 1.21 ± 0.076 | 1.28 ± 0.12 | 1.4 ± 0.1
E9PF16 and related entries (UniProt Q96CM8) | 1.06 ± 0.054 | 1.03 ± 0.059 | 0.9887 ± 0.0092 | 0.943 ± 0.057 | 0.965 ± 0.055 | 0.92 ± 0.024 | 0.924 ± 0.027 | 0.89 ± 0.018
E9PGC8 (UniProt P78559) | 0.986 ± 0.06 | 0.976 ± 0.062 | 1.01 ± 0.069 | 0.962 ± 0.071 | 0.962 ± 0.061 | 0.973 ± 0.059 | 1 ± 0.064 | 0.999 ± 0.074
G3V5T0 and related entries (UniProt O43708) | 0.95 ± 0.046 | 0.961 ± 0.087 | 0.879 ± 0.058 | 0.867 ± 0.063 | 0.848 ± 0.068 | 0.854 ± 0.076 | 0.819 ± 0.096 | 0.815 ± 0.091
E9PN10 and related entries (UniProt O00559) | 0.948 ± 0.1 | 0.876 ± 0.11 | 0.902 ± 0.1 | 0.93 ± 0.13 | 0.858 ± 0.024 | 0.833 ± 0.11 | 0.901 ± 0.028 | 0.926 ± 0.087
F8VXC8 and related entries (UniProt Q8TAQ2) | 1.02 ± 0.044 | 1.05 ± 0.011 | 1.12 ± 0.074 | 1.14 ± 0.1 | 1.17 ± 0.1 | 1.19 ± 0.15 | 1.23 ± 0.2 | 1.22 ± 0.19
E9PH99 and related entries (UniProt Q9Y4E5) | 0.997 ± 0.04 | 1 ± 0.12 | 0.922 ± 0.031 | 0.999 ± 0.021 | 1.02 ± 0.06 | 1.14 ± 0.049 | 1.26 ± 0.084 | 1.22 ± 0.12
E7EQL8 and related entries (UniProt Q96RT7) | 0.971 ± 0.096 | 0.9629 ± 0.0018 | 1.09 ± 0.045 | 1.28 ± 0.086 | 1.23 ± 0.42 | 1.24 ± 0.17 | 1.21 ± 0.33 | 1.16 ± 0.37
E9PG19 and related entries (UniProt O94868) | 1.04 ± 0.034 | 1.01 ± 0.029 | 1.02 ± 0.018 | 0.985 ± 0.04 | 0.987 ± 0.083 | 1.01 ± 0.076 | 0.99 ± 0.025 | 0.9803 ± 0.0073
F5H1I4 and related entries (UniProt Q8NG08) | 1.05 ± 0.14 | 1.03 ± 0.099 | 1.02 ± 0.087 | 1.03 ± 0.13 | 0.997 ± 0.16 | 0.988 ± 0.2 | 0.932 ± 0.086 | 0.913 ± 0.036
E9PF19 and related entries (UniProt Q9Y4P3) | 1.11 ± 0.067 | 1.1 ± 0.066 | 1.14 ± 0.045 | 1.2 ± 0.046 | 1.3 ± 0.078 | 1.31 ± 0.042 | 1.32 ± 0.027 | 1.33 ± 0.067
E9PK91 and related entries (UniProt Q9NYF8) | 1.01 ± 0.062 | 1.1 ± 0.097 | 1.19 ± 0.059 | 1.24 ± 0.1 | 1.31 ± 0.076 | 1.42 ± 0.099 | 1.57 ± 0.15 | 1.7 ± 0.21
E9PQR9 and related entries (UniProt P57764) | 1.04 ± 0.056 | 0.994 ± 0.025 | 0.946 ± 0.024 | 0.927 ± 0.041 | 0.958 ± 0.065 | 0.901 ± 0.051 | 0.943 ± 0.057 | 0.895 ± 0.049
F5H8H2 and related entries (UniProt Q03426) | 1.03 ± 0.043 | 1.01 ± 0.04 | 0.939 ± 0.056 | 0.957 ± 0.033 | 0.95 ± 0.038 | 0.931 ± 0.058 | 0.901 ± 0.073 | 0.896 ± 0.11

2 entries drawn at random from the list so far:
Target | NP40-soluble protein abundance (concentration: 0.1mM) | NP40-soluble protein abundance (concentration: 0.5mM) | NP40-soluble protein abundance (concentration: 1mM) | NP40-soluble protein abundance (concentration: 2mM) | NP40-soluble protein abundance (concentration: 4mM) | NP40-soluble protein abundance (concentration: 6mM) | NP40-soluble protein abundance (concentration: 8mM) | NP40-soluble protein abundance (concentration: 10mM)
G3V5T0 and related entries (UniProt O43708) | 0.95 ± 0.046 | 0.961 ± 0.087 | 0.879 ± 0.058 | 0.867 ± 0.063 | 0.848 ± 0.068 | 0.854 ± 0.076 | 0.819 ± 0.096 | 0.815 ± 0.091
E9PJN1 and related entries (UniProt O75676) | 1.18 ± 0.19 | 1.17 ± 0.15 | 1.2 ± 0.31 | 1.22 ± 0.26 | 1.2 ± 0.24 | 1.24 ± 0.27 | 1.18 ± 0.19 | 1.2 ± 0.16
